Experimental data from article PMC2522278.
No constants are given. Whether binding was seen depends on the method and setting. In cells and extracts the contact can be indirect.

By UniProt entry, the sequences of proteins in these tests, tags left out.
UniProt Q14671: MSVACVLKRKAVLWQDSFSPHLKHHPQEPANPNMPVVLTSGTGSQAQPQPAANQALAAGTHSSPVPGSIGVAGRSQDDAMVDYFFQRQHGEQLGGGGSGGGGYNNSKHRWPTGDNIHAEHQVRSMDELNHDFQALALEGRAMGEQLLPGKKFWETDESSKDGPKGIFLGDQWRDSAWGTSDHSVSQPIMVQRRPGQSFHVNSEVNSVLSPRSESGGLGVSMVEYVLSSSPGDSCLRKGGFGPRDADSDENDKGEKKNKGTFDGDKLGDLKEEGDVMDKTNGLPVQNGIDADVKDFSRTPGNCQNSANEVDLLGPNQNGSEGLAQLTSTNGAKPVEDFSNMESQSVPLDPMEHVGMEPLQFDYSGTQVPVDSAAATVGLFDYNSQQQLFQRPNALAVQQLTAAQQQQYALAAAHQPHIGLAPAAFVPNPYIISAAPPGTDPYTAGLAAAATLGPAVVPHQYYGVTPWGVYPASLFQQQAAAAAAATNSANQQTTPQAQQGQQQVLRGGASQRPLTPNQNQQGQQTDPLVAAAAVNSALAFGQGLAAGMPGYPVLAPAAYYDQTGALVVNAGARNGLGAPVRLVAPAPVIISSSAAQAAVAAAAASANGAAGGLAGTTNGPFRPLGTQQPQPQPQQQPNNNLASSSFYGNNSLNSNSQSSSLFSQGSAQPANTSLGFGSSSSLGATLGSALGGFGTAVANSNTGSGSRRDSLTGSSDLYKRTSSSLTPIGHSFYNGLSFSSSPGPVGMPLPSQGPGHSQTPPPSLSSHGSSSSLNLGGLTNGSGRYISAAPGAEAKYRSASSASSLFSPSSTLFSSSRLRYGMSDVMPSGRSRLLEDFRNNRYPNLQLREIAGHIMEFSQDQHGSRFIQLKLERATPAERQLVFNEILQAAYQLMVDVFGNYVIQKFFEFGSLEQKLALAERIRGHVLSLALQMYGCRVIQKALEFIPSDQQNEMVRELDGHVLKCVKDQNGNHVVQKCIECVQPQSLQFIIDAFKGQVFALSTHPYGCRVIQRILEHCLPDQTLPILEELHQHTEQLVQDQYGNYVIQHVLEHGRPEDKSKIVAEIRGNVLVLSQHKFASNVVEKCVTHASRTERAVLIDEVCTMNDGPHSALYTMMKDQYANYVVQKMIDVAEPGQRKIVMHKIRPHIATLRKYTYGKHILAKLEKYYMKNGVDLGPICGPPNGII
UniProt Q8TB72: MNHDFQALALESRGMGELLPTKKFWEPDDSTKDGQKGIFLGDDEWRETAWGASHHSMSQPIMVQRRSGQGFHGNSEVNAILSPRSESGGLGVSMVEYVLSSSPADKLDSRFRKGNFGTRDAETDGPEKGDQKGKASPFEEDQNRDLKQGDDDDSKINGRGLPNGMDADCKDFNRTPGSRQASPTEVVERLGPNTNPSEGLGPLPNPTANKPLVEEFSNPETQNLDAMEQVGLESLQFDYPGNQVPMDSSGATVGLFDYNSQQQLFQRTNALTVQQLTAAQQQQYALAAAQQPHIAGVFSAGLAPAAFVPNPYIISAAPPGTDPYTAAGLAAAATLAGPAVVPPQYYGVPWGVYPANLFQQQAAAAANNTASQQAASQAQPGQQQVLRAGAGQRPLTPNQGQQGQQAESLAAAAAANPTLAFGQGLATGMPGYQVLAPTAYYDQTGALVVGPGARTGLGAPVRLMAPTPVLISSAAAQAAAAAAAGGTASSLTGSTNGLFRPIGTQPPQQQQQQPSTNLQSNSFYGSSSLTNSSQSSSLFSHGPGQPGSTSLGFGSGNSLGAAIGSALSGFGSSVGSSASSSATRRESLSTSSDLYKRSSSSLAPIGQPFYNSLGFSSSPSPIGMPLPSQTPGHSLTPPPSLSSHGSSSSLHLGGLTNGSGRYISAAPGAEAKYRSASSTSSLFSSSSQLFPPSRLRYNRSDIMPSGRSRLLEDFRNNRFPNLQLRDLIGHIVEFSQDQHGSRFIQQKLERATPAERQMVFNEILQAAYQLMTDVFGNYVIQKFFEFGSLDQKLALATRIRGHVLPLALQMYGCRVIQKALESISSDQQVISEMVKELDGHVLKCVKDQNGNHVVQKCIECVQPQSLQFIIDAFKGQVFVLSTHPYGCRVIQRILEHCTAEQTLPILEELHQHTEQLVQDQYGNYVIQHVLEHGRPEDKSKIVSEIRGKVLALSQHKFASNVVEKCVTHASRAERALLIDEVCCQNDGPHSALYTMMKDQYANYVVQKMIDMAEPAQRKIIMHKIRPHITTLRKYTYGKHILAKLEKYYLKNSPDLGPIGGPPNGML

What was measured:
[1] = molecular target: Pumilio homolog 1 (PUM1) (human (endogenous in HeLa S3)) (UniProt Q14671); assay: co-IP; endogenous PUM1 or PUM2 captured from HeLa S3 cell extract (20 mg protein) with anti-PUM1 on protein G or anti-PUM2 on protein A sepharose beads; NT2 buffer with 30 mM EDTA, 1 mM DTT, RNase inhibitors; 6 hours at 4°C; eluted with SDS-EDTA; eluates immunoblotted with the alternate PUM …
[2] = molecular target: Pumilio homolog 2 (PUM2) (human (endogenous in HeLa S3)) (UniProt Q8TB72); assay: as above

Substance | binding [1] | binding [2]
Pumilio homolog 2 (PUM2) (from UniProt Q8TB72 1-1066) | no binding | –
Pumilio homolog 1 (PUM1) (from UniProt Q14671 1-1186) | – | no binding
